No constants are given. Whether binding was seen depends on the method and setting. Binding seen in cells or lysates may run through a third protein. Some binding calls cover weakened binding; strength is not graded here. For some assays here: Sequences can lack the tags named with a protein.
Experiments:
[1] = target: HMG-CoA reductase degradation protein 1 (HRD1), endogenous (human (endogenous in Caco-2)) (UniProt Q86TM6); test: co-IP; endogenous TMEM2 and HRD1 in Caco-2 cells; I/R or H/R named in the text
Myc-HRD1 (human) = Myc-HRD1 (human) (UniProt Q86TM6); test: co-IP; HEK293 cells transfected with Flag-TMEM2 and Myc-HRD1 or its deletion mutants for 48 h; antibody on Protein A/G magnetic beads

Chains of the proteins cited; added tags and fusions are not shown.
UniProt Q86TM6: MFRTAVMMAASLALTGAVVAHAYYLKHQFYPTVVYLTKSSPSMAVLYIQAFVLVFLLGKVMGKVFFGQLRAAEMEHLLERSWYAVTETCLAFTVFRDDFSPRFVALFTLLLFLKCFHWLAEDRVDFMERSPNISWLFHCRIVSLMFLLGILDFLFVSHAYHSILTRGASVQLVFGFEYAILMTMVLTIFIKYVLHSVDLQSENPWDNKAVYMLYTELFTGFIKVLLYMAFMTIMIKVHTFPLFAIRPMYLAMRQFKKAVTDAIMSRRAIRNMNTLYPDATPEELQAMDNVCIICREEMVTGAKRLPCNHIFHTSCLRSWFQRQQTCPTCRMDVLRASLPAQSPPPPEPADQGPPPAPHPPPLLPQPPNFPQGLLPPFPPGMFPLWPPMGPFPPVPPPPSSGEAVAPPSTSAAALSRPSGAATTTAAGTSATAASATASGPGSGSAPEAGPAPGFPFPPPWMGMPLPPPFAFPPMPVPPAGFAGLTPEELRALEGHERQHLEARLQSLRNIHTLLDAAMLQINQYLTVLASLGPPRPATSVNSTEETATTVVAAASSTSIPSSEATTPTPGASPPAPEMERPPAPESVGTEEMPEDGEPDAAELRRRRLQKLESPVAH

Binder	binding [1]	binding (Myc-HRD1 (human))
transmembrane protein 2 (TMEM2), endogenous (protein, UniProt Q9UHN6 1-1383) MYATDSRGHSPAFLQPQNGNSRHPSGYVPGKVVPLRPPPPPKSQASAKFTSIRREDRATFAFSPEEQQAQRESQKQKRHKNTFICFAITSFSFFIALAIILGISSKYAPDENCPDQNPRLRNWDPGQDSAKQVVIKEGDMLRLTSDATVHSIVIQDGGLLVFGDNKDGSRNITLRTHYILIQDGGALHIGAEKCRYKSKATITLYGKSDEGESMPTFGKKFIGVEAGGTLELHGARKASWTLLARTLNSSGLPFGSYTFEKDFSRGLNVRVIDQDTAKILESERFDTHEYRNESRRLQEFLRFQDPGRIVAIAVGDSAAKSLLQGTIQMIQERLGSELIQGLGYRQAWALVGVIDGGSTSCNESVRNYENHSSGGKALAQREFYTVDGQKFSVTAYSEWIEGVSLSGFRVEVVDGVKLNLLDDVSSWKPGDQIVVASTDYSMYQAEEFTLLPCSECSHFQVKVKETPQFLHMGEIIDGVDMRAEVGILTRNIVIQGEVEDSCYAENQCQFFDYDTFGGHIMIMKNFTSVHLSYVELKHMGQQQMGRYPVHFHLCGDVDYKGGYRHATFVDGLSIHHSFSRCITVHGTNGLLIKDTIGFDTLGHCFFLEDGIEQRNTLFHNLGLLTKPGTLLPTDRNNSMCTTMRDKVFGNYIPVPATDCMAVSTFWIAHPNNNLINNAAAGSQDAGIWYLFHKEPTGESSGLQLLAKPELTPLGIFYNNRVHSNFKAGLFIDKGVKTTNSSAADPREYLCLDNSARFRPHQDANPEKPRVAALIDRLIAFKNNDNGAWVRGGDIIVQNSAFADNGIGLTFASDGSFPSDEGSSQEVSESLFVGESRNYGFQGGQNKYVGTGGIDQKPRTLPRNRTFPIRGFQIYDGPIHLTRSTFKKYVPTPDRYSSAIGFLMKNSWQITPRNNISLVKFGPHVSLNVFFGKPGPWFEDCEMDGDKNSIFHDIDGSVTGYKDAYVGRMDNYLIRHPSCVNVSKWNAVICSGTYAQVYVQTWSTQNLSMTITRDEYPSNPMVLRGINQKAAFPQYQPVVMLEKGYTIHWNGPAPRTTFLYLVNFNKNDWIRVGLCYPSNTSFQVTFGYLQRQNGSLSKIEEYEPVHSLEELQRKQSERKFYFDSSTGLLFLYLKAKSHRHGHSYCSSQGCERVKIQAATDSKDISNCMAKAYPQYYRKPSVVKRMPAMLTGLCQGCGTRQVVFTSDPHKSYLPVQFQSPDKAETQRGDPSVISVNGTDFTFRSAGVLLLVVDPCSVPFRLTEKTVFPLADVSRIEEYLKTGIPPRSIVLLSTRGEIKQLNISHLLVPLGLAKPAHLYDKGSTIFLGFSGNFKPSWTKLFTSPAGQGLGVLEQFIPLQLDEYGCPRATTVRRRDLELLKQASKAH	binds	–
Flag-TMEM2 (protein, UniProt Q9UHN6 1-1383) MYATDSRGHSPAFLQPQNGNSRHPSGYVPGKVVPLRPPPPPKSQASAKFTSIRREDRATFAFSPEEQQAQRESQKQKRHKNTFICFAITSFSFFIALAIILGISSKYAPDENCPDQNPRLRNWDPGQDSAKQVVIKEGDMLRLTSDATVHSIVIQDGGLLVFGDNKDGSRNITLRTHYILIQDGGALHIGAEKCRYKSKATITLYGKSDEGESMPTFGKKFIGVEAGGTLELHGARKASWTLLARTLNSSGLPFGSYTFEKDFSRGLNVRVIDQDTAKILESERFDTHEYRNESRRLQEFLRFQDPGRIVAIAVGDSAAKSLLQGTIQMIQERLGSELIQGLGYRQAWALVGVIDGGSTSCNESVRNYENHSSGGKALAQREFYTVDGQKFSVTAYSEWIEGVSLSGFRVEVVDGVKLNLLDDVSSWKPGDQIVVASTDYSMYQAEEFTLLPCSECSHFQVKVKETPQFLHMGEIIDGVDMRAEVGILTRNIVIQGEVEDSCYAENQCQFFDYDTFGGHIMIMKNFTSVHLSYVELKHMGQQQMGRYPVHFHLCGDVDYKGGYRHATFVDGLSIHHSFSRCITVHGTNGLLIKDTIGFDTLGHCFFLEDGIEQRNTLFHNLGLLTKPGTLLPTDRNNSMCTTMRDKVFGNYIPVPATDCMAVSTFWIAHPNNNLINNAAAGSQDAGIWYLFHKEPTGESSGLQLLAKPELTPLGIFYNNRVHSNFKAGLFIDKGVKTTNSSAADPREYLCLDNSARFRPHQDANPEKPRVAALIDRLIAFKNNDNGAWVRGGDIIVQNSAFADNGIGLTFASDGSFPSDEGSSQEVSESLFVGESRNYGFQGGQNKYVGTGGIDQKPRTLPRNRTFPIRGFQIYDGPIHLTRSTFKKYVPTPDRYSSAIGFLMKNSWQITPRNNISLVKFGPHVSLNVFFGKPGPWFEDCEMDGDKNSIFHDIDGSVTGYKDAYVGRMDNYLIRHPSCVNVSKWNAVICSGTYAQVYVQTWSTQNLSMTITRDEYPSNPMVLRGINQKAAFPQYQPVVMLEKGYTIHWNGPAPRTTFLYLVNFNKNDWIRVGLCYPSNTSFQVTFGYLQRQNGSLSKIEEYEPVHSLEELQRKQSERKFYFDSSTGLLFLYLKAKSHRHGHSYCSSQGCERVKIQAATDSKDISNCMAKAYPQYYRKPSVVKRMPAMLTGLCQGCGTRQVVFTSDPHKSYLPVQFQSPDKAETQRGDPSVISVNGTDFTFRSAGVLLLVVDPCSVPFRLTEKTVFPLADVSRIEEYLKTGIPPRSIVLLSTRGEIKQLNISHLLVPLGLAKPAHLYDKGSTIFLGFSGNFKPSWTKLFTSPAGQGLGVLEQFIPLQLDEYGCPRATTVRRRDLELLKQASKAH	–	binds
